For twelve molecules, binding results are on record in doi:10.1101/2025.07.25.666749.

Holding throughout (assay): proximity labelling
Assay [1] concerns the target T1, UltraID_ZFP36L1 (UltraID fused to the N-terminus of ZFP36L1) (UniProt Q07352).
T1 sequence: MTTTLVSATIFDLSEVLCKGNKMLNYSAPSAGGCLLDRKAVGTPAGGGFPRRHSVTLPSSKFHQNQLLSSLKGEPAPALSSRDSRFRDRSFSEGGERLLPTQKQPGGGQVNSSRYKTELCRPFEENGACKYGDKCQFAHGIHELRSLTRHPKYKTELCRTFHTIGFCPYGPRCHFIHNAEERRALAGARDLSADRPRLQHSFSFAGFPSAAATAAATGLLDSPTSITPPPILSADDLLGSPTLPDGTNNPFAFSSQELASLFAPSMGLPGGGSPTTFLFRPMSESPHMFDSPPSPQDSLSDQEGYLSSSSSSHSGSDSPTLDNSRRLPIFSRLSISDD

The target in assay [2] is T1, UltraID_ZFP36L1 (UltraID fused to the N-terminus of ZFP36L1). The source holds these as a separate data set.
Assay [3] has the same target. This is another data set of the same source.

Like-named read-outs stand apart in the source and are kept apart here. Results are given in words; binding and its absence hold for the method and conditions named. In cells and extracts the contact can be indirect. Here binding means that the protein was enriched with, or labelled near, the bait; the list need not be complete. Tags and fused reporters may be left off the sequences shown.

Take TNRC6A (from UniProt Q8NDV7 1-1962): the binding result in assay [1] is “binds”.
As to PUM1 (from UniProt Q14671 1-1186), the binding entry in assay [1] and in assay [2] was “binds” throughout.
As to TNRC6C (from UniProt Q9HCJ0 1-1936), the binding entry in assay [1] and in assay [2] was “binds” in each case.
On to UBAP2L (from UniProt Q14157 1-1087), for which the binding entry in assay [1] and in assay [2] was “binds” in each case.
Regarding TNRC6B (from UniProt Q9UPQ9 1-1833), the binding entry in assay [1] is listed as “binds”.
For YBX1 (from UniProt P67809 1-324), the binding result in assay [1] and in assay [2] was “binds” in each case.

B1: ZNF598 (protein, UniProt Q86UK7 1-904)
chain: MAAAGGAEGRRAALEAAAAAAPERGGGSCVLCCGDLEATALGRCDHPVCYRCSTKMRVLCEQRYCAVCREELRQVVFGKKLPAFATIPIHQLQHEKKYDIYFADGKVYALYRQLLQHECPRCPELPPFSLFGDLEQHMRRQHELFCCRLCLQHLQIFTYERKWYSRKDLARHRMQGDPDDTSHRGHPLCKFCDERYLDNDELLKHLRRDHYFCHFCDSDGAQDYYSDYAYLREHFREKHFLCEEGRCSTEQFTHAFRTEIDLKAHRTACHSRSRAEARQNRHIDLQFSYAPRHSRRNEGVVGGEDYEEVDRYSRQGRVARAGTRGAQQSRRGSWRYKREEEDREVAAAVRASVAAQQQEEARRSEDQEEGGRPKKEEAAARGPEDPRGPRRSPRTQGEGPGPKETSTNGPVSQEAFSVTGPAAPGCVGVPGALPPPSPKLKDEDFPSLSASTSSSCSTAATPGPVGLALPYAIPARGRSAFQEEDFPALVSSVPKPGTAPTSLVSAWNSSSSSKKVAQPPLSAQATGSGQPTRKAGKGSRGGRKGGPPFTQEEEEDGGPALQELLSTRPTGSVSSTLGLASIQPSKVGKKKKVGSEKPGTTLPQPPPATCPPGALQAPEAPASRAEGPVAVVVNGHTEGPAPARSAPKEPPGLPRPLGSFPCPTPQEDFPALGGPCPPRMPPPPGFSAVVLLKGTPPPPPPGLVPPISKPPPGFSGLLPSPHPACVPSPATTTTTKAPRLLPAPRAYLVPENFRERNLQLIQSIRDFLQSDEARFSEFKSHSGEFRQGLISAAQYYKSCRDLLGENFQKVFNELLVLLPDTAKQQELLSAHTDFCNREKPLSTKSKKNKKSAWQATTQQAGLDCRVCPTCQQVLAHGDASSHQALHAARDDDFPSLQAIARIIT
Turning to B1, the binding result in assay [3] is given as “binds”.

B2: SIRT2 (protein, UniProt Q8IXJ6 1-389)
chain: MAEPDPSHPLETQAGKVQEAQDSDSDSEGGAAGGEADMDFLRNLFSQTLSLGSQKERLLDELTLEGVARYMQSERCRRVICLVGAGISTSAGIPDFRSPSTGLYDNLEKYHLPYPEAIFEISYFKKHPEPFFALAKELYPGQFKPTICHYFMRLLKDKGLLLRCYTQNIDTLERIAGLEQEDLVEAHGTFYTSHCVSASCRHEYPLSWMKEKIFSEVTPKCEDCQSLVKPDIVFFGESLPARFFSCMQSDFLKVDLLLVMGTSLQVQPFASLISKAPLSTPRLLINKEKAGQSDPFLGMIMGLGGGMDFDSKKAYRDVAWLGECDQGCLALAELLGWKKELEDLVRREHASIDAQSGAGVPNPSTSASPKKSPPPAKDEARTTEREKPQ
As for B2, the binding entry in assay [3] was “binds”.

B3: CSTF2 (protein, UniProt P33240 1-577)
chain: MAGLTVRDPAVDRSLRSVFVGNIPYEATEEQLKDIFSEVGPVVSFRLVYDRETGKPKGYGFCEYQDQETALSAMRNLNGREFSGRALRVDNAASEKNKEELKSLGTGAPVIESPYGETISPEDAPESISKAVASLPPEQMFELMKQMKLCVQNSPQEARNMLLQNPQLAYALLQAQVVMRIVDPEIALKILHRQTNIPTLIAGNPQPVHGAGPGSGSNVSMNQQNPQAPQAQSLGGMHVNGAPPLMQASMQGGVPAPGQMPAAVTGPGPGSLAPGGGMQAQVGMPGSGPVSMERGQVPMQDPRAAMQRGSLPANVPTPRGLLGDAPNDPRGGTLLSVTGEVEPRGYLGPPHQGPPMHHVPGHESRGPPPHELRGGPLPEPRPLMAEPRGPMLDQRGPPLDGRGGRDPRGIDARGMEARAMEARGLDARGLEARAMEARAMEARAMEARAMEARAMEVRGMEARGMDTRGPVPGPRGPIPSGMQGPSPINMGAVVPQGSRQVPVMQGTGMQGASIQGGSQPGGFSPGQNQVTPQDHEKAALIMQVLQLTADQIAMLPPEQRQSILILKEQIQKSTGAP
Consider B3, for which the binding entry in assay [1] and in assay [3] was “binds” each time.

B4: UPF1 (protein, UniProt Q92900 1-1129)
chain: MSVEAYGPSSQTLTFLDTEEAELLGADTQGSEFEFTDFTLPSQTQTPPGGPGGPGGGGAGGPGGAGAGAAAGQLDAQVGPEGILQNGAVDDSVAKTSQLLAELNFEEDEEDTYYTKDLPIHACSYCGIHDPACVVYCNTSKKWFCNGRGNTSGSHIVNHLVRAKCKEVTLHKDGPLGETVLECYNCGCRNVFLLGFIPAKADSVVVLLCRQPCASQSSLKDINWDSSQWQPLIQDRCFLSWLVKIPSEQEQLRARQITAQQINKLEELWKENPSATLEDLEKPGVDEEPQHVLLRYEDAYQYQNIFGPLVKLEADYDKKLKESQTQDNITVRWDLGLNKKRIAYFTLPKTDSGNEDLVIIWLRDMRLMQGDEICLRYKGDLAPLWKGIGHVIKVPDNYGDEIAIELRSSVGAPVEVTHNFQVDFVWKSTSFDRMQSALKTFAVDETSVSGYIYHKLLGHEVEDVIIKCQLPKRFTAQGLPDLNHSQVYAVKTVLQRPLSLIQGPPGTGKTVTSATIVYHLARQGNGPVLVCAPSNIAVDQLTEKIHQTGLKVVRLCAKSREAIDSPVSFLALHNQIRNMDSMPELQKLQQLKDETGELSSADEKRYRALKRTAERELLMNADVICCTCVGAGDPRLAKMQFRSILIDESTQATEPECMVPVVLGAKQLILVGDHCQLGPVVMCKKAAKAGLSQSLFERLVVLGIRPIRLQVQYRMHPALSAFPSNIFYEGSLQNGVTAADRVKKGFDFQWPQPDKPMFFYVTQGQEEIASSGTSYLNRTEAANVEKITTKLLKAGAKPDQIGIITPYEGQRSYLVQYMQFSGSLHTKLYQEVEIASVDAFQGREKDFIILSCVRANEHQGIGFLNDPRRLNVALTRARYGVIIVGNPKALSKQPLWNHLLNYYKEQKVLVEGPLNNLRESLMQFSKPRKLVNTINPGARFMTTAMYDAREAIIPGSVYDRSSQGRPSSMYFQTHDQIGMISAGPSHVAAMNIPIPFNLVMPPMPPPGYFGQANGPAAGRGTPKGKTGRGGRQKNRFGLPGPSQTNLPNSQASQDVASQPFSQGALTQGYISMSQPSQMSQPGLSQPELSQDSYLGDEFKSQIDVALSQDSTYQGERAYQHGGVTGLSQY
Consider B4, for which the binding result in assay [1] and in assay [3] was “binds” throughout.

B5: ATXN2L (protein, UniProt Q8WWM7 1-1075)
chain: MLKPQPLQQPSQPQQPPPTQQAVARRPPGGTSPPNGGLPGPLATSAAPPGPPAAASPCLGPVAAAGSGLRRGAEGILAPQPPPPQQHQERPGAAAIGSARGQSTGKGPPQSPVFEGVYNNSRMLHFLTAVVGSTCDVKVKNGTTYEGIFKTLSSKFELAVDAVHRKASEPAGGPRREDIVDTMVFKPSDVMLVHFRNVDFNYATKDKFTDSAIAMNSKVNGEHKEKVLQRWEGGDSNSDDYDLESDMSNGWDPNEMFKFNEENYGVKTTYDSSLSSYTVPLEKDNSEEFRQRELRAAQLAREIESSPQYRLRIAMENDDGRTEEEKHSAVQRQGSGRESPSLASREGKYIPLPQRVREGPRGGVRCSSSRGGRPGLSSLPPRGPHHLDNSSPGPGSEARGINGGPSRMSPKAQRPLRGAKTLSSPSNRPSGETSVPPPPAVGRMYPPRSPKSAAPAPISASCPEPPIGSAVPTSSASIPVTSSVSDPGVGSISPASPKISLAPTDVKELSTKEPGRTLEPQELARIAGKVPGLQNEQKRFQLEELRKFGAQFKLQPSSSPENSLDPFPPRILKEEPKGKEKEVDGLLTSEPMGSPVSSKTESVSDKEDKPPLAPSGGTEGPEQPPPPCPSQTGSPPVGLIKGEDKDEGPVAEQVKKSTLNPNAKEFNPTKPLLSVNKSTSTPTSPGPRTHSTPSIPVLTAGQSGLYSPQYISYIPQIHMGPAVQAPQMYPYPVSNSVPGQQGKYRGAKGSLPPQRSDQHQPASAPPMMQAAAAAGPPLVAATPYSSYIPYNPQQFPGQPAMMQPMAHYPSQPVFAPMLQSNPRMLTSGSHPQAIVSSSTPQYPSAEQPTPQALYATVHQSYPHHATQLHAHQPQPATTPTGSQPQSQHAAPSPVQHQAGQAPHLGSGQPQQNLYHPGALTGTPPSLPPGPSAQSPQSSFPQPAAVYAIHHQQLPHGFTNMAHVTQAHVQTGITAAPPPHPGAPHPPQVMLLHPPQSHGGPPQGAVPQSGVPALSASTPSPYPYIGHPQGEQPGQAPGFPGGADDRIREFSLAGGIWHGRAEGLQVGQDARVLGGE
Consider B5, for which the binding result in assay [1] and in assay [3] was “binds” throughout.

B6: PATL1 (protein, UniProt Q86TB9 1-770)
chain: MFRYESLEDCPLDEDEDAFQGLGEEDEEIDQFNDDTFGSGAVDDDWQEAHERLAELEEKLPVAVNEQTGNGERDEMDLLGDHEENLAERLSKMVIENELEDPAIMRAVQTRPVLQPQPGSLNSSIWDGSEVLRRIRGPLLAQEMPTVSVLEYALPQRPPQGPEDDRDLSERALPRRSTSPIIGSPPVRAVPIGTPPKQMAVPSFTQQILCPKPVHVRPPMPPRYPAPYGERMSPNQLCSVPNSSLLGHPFPPSVPPVLSPLQRAQLLGGAQLQPGRMSPSQFARVPGFVGSPLAAMNPKLLQGRVGQMLPPAPGFRAFFSAPPSATPPPQQHPPGPGPHLQNLRSQAPMFRPDTTHLHPQHRRLLHQRQQQNRSQHRNLNGAGDRGSHRSSHQDHLRKDPYANLMLQREKDWVSKIQMMQLQSTDPYLDDFYYQNYFEKLEKLSAAEEIQGDGPKKERTKLITPQVAKLEHAYKPVQFEGSLGKLTVSSVNNPRKMIDAVVTSRSEDDETKEKQVRDKRRKTLVIIEKTYSLLLDVEDYERRYLLSLEEERPALMDDRKHKICSMYDNLRGKLPGQERPSDDHFVQIMCIRKGKRMVARILPFLSTEQAADILMTTARNLPFLIKKDAQDEVLPCLLSPFSLLLYHLPSVSITSLLRQLMNLPQSAATPALSNPHLTAVLQNKFGLSLLLILLSRGEDLQSSDPATESTQNNQWTEVMFMATRELLRIPQAALAKPISIPTNLVSLFSRYVDRQKLNLLETKLQLVQGIR
With B6, the binding result in assay [1] and in assay [3] was “binds” in each case.
